This passage reports binding signal results from article PMC7819943, “Rice protein-binding microarrays: a tool to detect cis-acting elements near promoter regions in rice”.

Protein sequences, listed by entry. Tags and fused reporters are not part of them.
UniProt Q0JBA9, entry or part of it: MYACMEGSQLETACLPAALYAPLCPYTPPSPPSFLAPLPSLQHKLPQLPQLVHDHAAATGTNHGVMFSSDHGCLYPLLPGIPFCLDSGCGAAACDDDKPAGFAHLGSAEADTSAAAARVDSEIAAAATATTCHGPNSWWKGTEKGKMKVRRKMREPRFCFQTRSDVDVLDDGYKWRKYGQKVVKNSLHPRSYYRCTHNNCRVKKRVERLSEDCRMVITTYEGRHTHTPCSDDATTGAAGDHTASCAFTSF

This is one part of the list.

For the experiment, the target named is OsWRKY34 (Oryza sativa, UniProt Q0JBA9 1-250). In words: protein-binding microarray (RPBM); PBS, 2% BSA, 51.3 ng/ul salmon testes DNA, 50 uM zinc acetate, 200 nM TF, 25 C, 1 h; high values mean tight binding. The settings on record: protein: recombinant; tags: N-terminal polyhistidine and DsRed monomer fusion (pET32a); label: CyDye5-dUTP incorporated in the synthesized complementary strand; 3' TTTTT single-stranded linker to array surface; dsDNA, one strand shown. The gist of the method:
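A custom Agilent array was converted to double-stranded form by primer extension with Cy5-dUTP and blocked with 2% BSA. Protein at 200 nM in PBS with 2% BSA, salmon testes DNA and 50 µM zinc acetate was applied for 1 h at 25 °C, followed by washing. The proteins were polyhistidine–DsRed N-terminal fusions of transcription factors, expressed in E. coli BL21-CodonPlus and Ni–NTA-purified. The binding signal is per-feature fluorescence intensity (arbitrary units) from an Axon 4000B scanner.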
As to “ATCCACCACCACCACCACCACCGCTTCACTCGGCTGCGGCCGGAGTCACCTAGTGCAG”, the binding signal is 12600 fluorescence intensity (a.u.).

As for “ATTCAGATCCTTAGTTGCTGGTTTTTCTTGTTCCTTTTCTCGGAGTCACCTAGTGCAG”, the binding signal is 8360 fluorescence intensity (a.u.).

In the case of “ACTGCAATTTTGTACAATCTAGTTTTTGTCTATTTTTTATCGGAGTCACCTAGTGCAG”, the binding signal is 12100 fluorescence intensity (a.u.).

Take “ATCTGCAAAATTCTTCATGCACCCTAGCTACTACCTTAGCCGGAGTCACCTAGTGCAG”: the binding signal is 8580 fluorescence intensity (a.u.).

For the sequence “AATTATTTCGATTCGAGATGGATTCTACTGCCCCGTTGACCGGAGTCACCTAGTGCAG”, the binding signal is 11600 fluorescence intensity (a.u.).

Consider “AACCCTTGATTCCTGCATCAACGTTAGGAATCCACTTCTCCGGAGTCACCTAGTGCAG”, for which the binding signal is 8120 fluorescence intensity (a.u.).

As for “AGATGCCAATACTACGCCCACTTCCCGCGCGCTCTATATACGGAGTCACCTAGTGCAG”, the binding signal is 8320 fluorescence intensity (a.u.).

On to “CCTAACATTTGTGCTTGTTTCTGTTCTGTCAAAAGGCTATCGGAGTCACCTAGTGCAG”, for which the binding signal is 8410 fluorescence intensity (a.u.).

Consider “TCTCTTTCTCGCCCGTTTCCCCACCACCACCACCACCACCCGGAGTCACCTAGTGCAG”, for which the binding signal is 8430 fluorescence intensity (a.u.).

With “AATTTCTGCTGCCATTTTCTATGTTCTTTAGTCTAAGTTTCGGAGTCACCTAGTGCAG”, the binding signal is 14700 fluorescence intensity (a.u.).

“TTGCTGAGCTCCGATGGAATTTTGCCGGTCAACGAGTTGTCGGAGTCACCTAGTGCAG”: the binding signal was 8180 fluorescence intensity (a.u.).

In the case of “GGAGTTTATCACACATCTCTCAACATTTTTATCTTATATCCGGAGTCACCTAGTGCAG”, the binding signal was 8420 fluorescence intensity (a.u.).

Turning to “GAAGCGGGTGGCGGTGGAGGAGCTCCGCCGGCGCGTTGACCGGAGTCACCTAGTGCAG”, the binding signal is 13600 fluorescence intensity (a.u.).

For “GGGCTTTGTTTAGTTCTCAAAATTTGTTTTCCAAAAACATCGGAGTCACCTAGTGCAG”, the binding signal is 8540 fluorescence intensity (a.u.).

“GGGAGGGGAGGGGAGGGATGGCTGGACTGGACCGAGTGAGCGGAGTCACCTAGTGCAG”: the binding signal was 13800 fluorescence intensity (a.u.).

Consider “CATGTTCTTCGTCCCTCTGTCACAGCAGCTGCCTTTTACGCGGAGTCACCTAGTGCAG”, for which the binding signal is 11100 fluorescence intensity (a.u.).

In the case of “GTCCCCATTGTTGCTGGCTTGCTGCATGTTCATCTTGTTGCGGAGTCACCTAGTGCAG”, the binding signal is 9520 fluorescence intensity (a.u.).

As for “GTCACTCCTACTCCCGCCACCACCGGCCCAATGGCGCCCCCGGAGTCACCTAGTGCAG”, the binding signal is 9660 fluorescence intensity (a.u.).

Consider “GCGCTCAACTTTAATCGTCCGTTTTATTTGAAATTTTTTTCGGAGTCACCTAGTGCAG”, for which the binding signal is 8330 fluorescence intensity (a.u.).

Regarding “AATTTTTTTTTCTGTACCTTTTCTTGTGATTCTGCGTCCACGGAGTCACCTAGTGCAG”, the binding signal is 8760 fluorescence intensity (a.u.).

Consider “TCCGCCACCGCCGCCTTCGCCGCTGCGGCGATCTCACTCGCGGAGTCACCTAGTGCAG”, for which the binding signal is 9670 fluorescence intensity (a.u.).

For “ATCGGGGTGTGACATATTTAGATCGTCTGGTAAAATTTTACGGAGTCACCTAGTGCAG”, the binding signal was 8280 fluorescence intensity (a.u.).

Consider “TAGTTTCCACTCCCTCTCCTCGGGGAGTCGTTGCTGTTCTCGGAGTCACCTAGTGCAG”, for which the binding signal was 9380 fluorescence intensity (a.u.).

For the sequence “AGCACAATCTATATTTAAACATTGACCATTCGTCTATTTTCGGAGTCACCTAGTGCAG”, the binding signal is 8260 fluorescence intensity (a.u.).

Consider “TCCTTAAAATATCTCGGGAGGTAGCATATTTTTTATTGTACGGAGTCACCTAGTGCAG”, for which the binding signal is 8670 fluorescence intensity (a.u.).

As to “TCCCAACCCATCTCCCTCGTTTTCCGCGCGCACGCTTTTCCGGAGTCACCTAGTGCAG”, the binding signal is 14000 fluorescence intensity (a.u.).

As for “AAATCGCTCTCATTACGTTTCTAGAATTTTTTTTTGTGTGCGGAGTCACCTAGTGCAG”, the binding signal was 8030 fluorescence intensity (a.u.).

With “TGCATTCCTGTTACACGCTTTATTAATTATTATATAAAAACGGAGTCACCTAGTGCAG”, the binding signal is 9720 fluorescence intensity (a.u.).

In the case of “TTGTAGTACTAGGTCGTATCTAATACTAGTTGATTTTTTACGGAGTCACCTAGTGCAG”, the binding signal is 8190 fluorescence intensity (a.u.).

In the case of “CTTCTTCATTTTCCACGCGCACAATTTTCAAACTGTTAAACGGAGTCACCTAGTGCAG”, the binding signal is 9790 fluorescence intensity (a.u.).

As to “TCTGTTGATGGATGTGGATGTTGTGCAGGTGACGCTGCAGCGGAGTCACCTAGTGCAG”, the binding signal is 9280 fluorescence intensity (a.u.).

Take “CTTTTTTTATCATTTTGTTTCACTTTGAACTATTTTATTTCGGAGTCACCTAGTGCAG”: the binding signal was 10600 fluorescence intensity (a.u.).

For “CATCTCGCCAATTCTACTGAACATATGCTAGCTAATCCAACGGAGTCACCTAGTGCAG”, the binding signal is 9490 fluorescence intensity (a.u.).

“TTCCACGTCCACCAACCGCCGCTTCGCCCTTCGCTGCTGCCGGAGTCACCTAGTGCAG”: the binding signal is 9300 fluorescence intensity (a.u.).

For “AAATGTGGTTTTGATGGTTTCCAACATATATTTATCGGTTCGGAGTCACCTAGTGCAG”, the binding signal is 8570 fluorescence intensity (a.u.).

With “AGCAGCAGCAGTACTCGCCCACCGGACACCACCCCATGCCCGGAGTCACCTAGTGCAG”, the binding signal is 9730 fluorescence intensity (a.u.).

As for “CTTGCTGTCCTCTCGTTTCCTGTGTCATTCTCGCGCGCCACGGAGTCACCTAGTGCAG”, the binding signal was 9800 fluorescence intensity (a.u.).

With “TGTTCGTCGTCGTCGTCTCCCTCGCCGGCCGCGACGCCACCGGAGTCACCTAGTGCAG”, the binding signal is 8030 fluorescence intensity (a.u.).

On to “ATTAAAGTTGGATACGGAAACCCAGGGTTTGTCTTTTTTTCGGAGTCACCTAGTGCAG”, for which the binding signal was 9170 fluorescence intensity (a.u.).

Regarding “CTTCTTTGCATGCATGAGCTGCCAGCCTGTCCGTCCAATACGGAGTCACCTAGTGCAG”, the binding signal is 8150 fluorescence intensity (a.u.).

“ACACCTGCCATGTGTCTCCACCATATAGTCCGTTATAACACGGAGTCACCTAGTGCAG”: the binding signal is 8670 fluorescence intensity (a.u.).

For the sequence “ATTCATGAGTGTGTAGGTGTGACGTTGCGTGTCTAGTGTTCGGAGTCACCTAGTGCAG”, the binding signal is 8180 fluorescence intensity (a.u.).
